For this assay, the target named is T1, Caspase-11 (in transfected cells) (mouse) (UniProt P70343).
T1 sequence: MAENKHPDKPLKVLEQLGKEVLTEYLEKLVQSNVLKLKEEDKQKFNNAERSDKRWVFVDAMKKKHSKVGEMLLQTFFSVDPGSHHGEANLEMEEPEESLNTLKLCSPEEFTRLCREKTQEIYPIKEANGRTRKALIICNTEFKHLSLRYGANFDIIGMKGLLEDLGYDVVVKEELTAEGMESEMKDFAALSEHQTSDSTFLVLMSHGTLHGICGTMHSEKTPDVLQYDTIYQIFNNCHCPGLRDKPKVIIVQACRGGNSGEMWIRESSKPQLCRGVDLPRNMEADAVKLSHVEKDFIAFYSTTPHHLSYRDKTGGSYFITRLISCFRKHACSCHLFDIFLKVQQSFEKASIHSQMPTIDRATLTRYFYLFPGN
Put plainly: co-IP; cells (iBMDM) overexpressing the indicated plasmid combinations, with or without overexpressed P300 or SIRT1; MG132 to inhibit protein degradation.

No constants are given. Whether binding was seen depends on the method and setting. Binding seen in cells or lysates may run through a third protein. Binding can be weak; no strength is given.

As to HA-NEDD4 K33R (mouse), the binding entry is on record as “binds”.

For the origin of these results see paper PMC10878146.
